# Reference: PMC8291974
# Sequences of proteins named here, by UniProt entry; tags and fusion partners are left off. A change or cut given only in a name is not applied to a line headed by its entry.
# UniProt E9Q777: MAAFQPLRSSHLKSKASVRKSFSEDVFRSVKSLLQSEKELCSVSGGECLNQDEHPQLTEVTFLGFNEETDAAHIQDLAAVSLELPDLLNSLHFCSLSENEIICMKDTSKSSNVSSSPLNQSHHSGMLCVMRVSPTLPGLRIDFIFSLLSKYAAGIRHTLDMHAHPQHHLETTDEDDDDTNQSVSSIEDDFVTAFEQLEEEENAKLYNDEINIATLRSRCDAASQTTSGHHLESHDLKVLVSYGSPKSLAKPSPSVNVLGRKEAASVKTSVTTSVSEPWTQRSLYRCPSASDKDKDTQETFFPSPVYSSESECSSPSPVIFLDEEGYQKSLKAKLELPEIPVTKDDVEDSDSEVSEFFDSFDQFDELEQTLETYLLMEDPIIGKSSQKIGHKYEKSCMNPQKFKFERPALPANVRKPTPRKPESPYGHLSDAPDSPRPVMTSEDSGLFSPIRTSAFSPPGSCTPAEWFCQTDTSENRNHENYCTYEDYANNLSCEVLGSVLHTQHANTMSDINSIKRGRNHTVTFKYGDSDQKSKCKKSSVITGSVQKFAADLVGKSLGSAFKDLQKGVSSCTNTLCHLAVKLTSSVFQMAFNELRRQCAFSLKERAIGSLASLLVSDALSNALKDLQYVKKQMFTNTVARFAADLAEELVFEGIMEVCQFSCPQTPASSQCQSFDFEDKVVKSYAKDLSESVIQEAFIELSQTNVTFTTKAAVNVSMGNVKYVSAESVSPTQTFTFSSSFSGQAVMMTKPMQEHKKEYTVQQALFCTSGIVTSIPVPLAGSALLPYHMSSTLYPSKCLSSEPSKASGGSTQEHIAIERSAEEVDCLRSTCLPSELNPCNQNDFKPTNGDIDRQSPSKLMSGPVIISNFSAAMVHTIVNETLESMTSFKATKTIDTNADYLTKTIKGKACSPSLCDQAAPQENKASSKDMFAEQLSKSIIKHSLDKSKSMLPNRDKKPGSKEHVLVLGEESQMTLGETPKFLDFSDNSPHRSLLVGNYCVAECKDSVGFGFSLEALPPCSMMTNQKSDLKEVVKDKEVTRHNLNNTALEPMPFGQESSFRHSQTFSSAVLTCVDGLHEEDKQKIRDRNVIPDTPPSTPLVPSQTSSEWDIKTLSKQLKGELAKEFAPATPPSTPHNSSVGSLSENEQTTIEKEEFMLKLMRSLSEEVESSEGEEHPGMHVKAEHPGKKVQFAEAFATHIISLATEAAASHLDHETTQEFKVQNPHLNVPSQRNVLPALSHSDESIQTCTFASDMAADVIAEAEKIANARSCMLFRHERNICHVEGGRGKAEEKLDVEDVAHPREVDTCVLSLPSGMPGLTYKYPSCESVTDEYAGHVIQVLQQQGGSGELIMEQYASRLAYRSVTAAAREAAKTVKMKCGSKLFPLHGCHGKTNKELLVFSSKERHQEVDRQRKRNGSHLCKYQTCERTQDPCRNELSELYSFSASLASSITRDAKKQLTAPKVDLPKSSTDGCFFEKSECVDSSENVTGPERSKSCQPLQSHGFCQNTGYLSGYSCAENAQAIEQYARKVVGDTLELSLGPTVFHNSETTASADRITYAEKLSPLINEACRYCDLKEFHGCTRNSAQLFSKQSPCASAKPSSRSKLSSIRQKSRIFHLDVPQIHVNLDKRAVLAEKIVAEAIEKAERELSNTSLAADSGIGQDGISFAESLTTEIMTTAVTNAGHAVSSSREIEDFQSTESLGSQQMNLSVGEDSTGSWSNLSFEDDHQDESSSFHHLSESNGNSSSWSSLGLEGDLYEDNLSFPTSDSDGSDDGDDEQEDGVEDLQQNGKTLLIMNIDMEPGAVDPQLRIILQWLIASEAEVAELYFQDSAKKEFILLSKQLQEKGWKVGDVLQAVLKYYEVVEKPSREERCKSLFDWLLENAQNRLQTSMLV
# Biological target: T1, histone deacetylase 6 (HDAC6), endogenous in mIMCD3 cells (mouse (endogenous in mIMCD3)) (UniProt Q9Z2V5)
# T1 sequence: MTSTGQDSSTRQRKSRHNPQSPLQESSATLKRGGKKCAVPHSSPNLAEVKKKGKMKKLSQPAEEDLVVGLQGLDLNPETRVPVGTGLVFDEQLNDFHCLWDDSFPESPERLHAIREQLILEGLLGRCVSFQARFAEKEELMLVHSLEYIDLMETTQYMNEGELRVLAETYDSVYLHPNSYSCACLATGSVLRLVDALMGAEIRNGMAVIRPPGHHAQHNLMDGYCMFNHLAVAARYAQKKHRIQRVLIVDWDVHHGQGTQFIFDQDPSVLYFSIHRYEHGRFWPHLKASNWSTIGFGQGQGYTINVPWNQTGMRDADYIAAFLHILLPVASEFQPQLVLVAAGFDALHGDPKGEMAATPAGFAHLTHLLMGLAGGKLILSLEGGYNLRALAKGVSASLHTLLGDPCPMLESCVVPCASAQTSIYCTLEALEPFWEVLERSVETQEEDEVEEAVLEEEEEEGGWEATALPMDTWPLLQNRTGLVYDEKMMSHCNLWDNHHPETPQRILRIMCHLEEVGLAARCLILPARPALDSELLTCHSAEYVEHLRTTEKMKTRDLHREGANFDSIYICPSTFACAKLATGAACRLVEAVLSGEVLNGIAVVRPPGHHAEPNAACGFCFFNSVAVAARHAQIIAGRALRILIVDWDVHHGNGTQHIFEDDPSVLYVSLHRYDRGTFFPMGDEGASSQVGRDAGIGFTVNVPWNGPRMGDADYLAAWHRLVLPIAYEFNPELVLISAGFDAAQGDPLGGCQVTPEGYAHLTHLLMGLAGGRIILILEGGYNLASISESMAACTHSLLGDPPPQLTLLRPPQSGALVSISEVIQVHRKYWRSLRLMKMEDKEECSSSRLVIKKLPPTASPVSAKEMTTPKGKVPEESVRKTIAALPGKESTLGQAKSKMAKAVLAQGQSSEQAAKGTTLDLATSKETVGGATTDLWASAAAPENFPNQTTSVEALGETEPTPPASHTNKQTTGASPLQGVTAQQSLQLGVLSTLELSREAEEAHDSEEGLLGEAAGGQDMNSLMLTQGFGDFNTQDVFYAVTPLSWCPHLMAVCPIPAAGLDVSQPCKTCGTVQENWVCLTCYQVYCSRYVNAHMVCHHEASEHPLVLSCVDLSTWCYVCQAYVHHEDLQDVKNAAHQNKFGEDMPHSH
# Test: co-IP; immunoprecipitation of HDAC6 from wild-type or AKAP220-ΔPP1 mIMCD3 cell lysates, immunoblot for AKAP220
substance,measurement,value
"AKAP220-ΔPP1 (knock-in mutant, KVQF motif replaced by TATA) (from UniProt E9Q777)",binding,binds

# Results are given in words; binding and its absence hold for the method and conditions named. In cells and extracts the contact can be indirect. Binding calls can cover weak binding; strength is not graded here. Where a sequence is shown, tags or fusion partners need not be part of it.
